No constants are given. Whether binding was seen depends on the method and setting. In cells and extracts the contact can be indirect. Some binding calls cover weakened binding; strength is not graded here.
Biological target: NLRC4 (rat (endogenous in Sprague-Dawley rat brain)) (UniProt F1M649)
Test: co-IP; antibody on magnetic beads incubated with rat brain tissue sample (peri-hematoma area, 72 h after ICH), Western blot of the precipitate; groups: sham, ICH, ICH + GNE7915, ICH + vehicle, ICH + shRGS2, ICH + NC

The chains behind the UniProt entries cited, without tags or fusion partners.
UniProt F1M649: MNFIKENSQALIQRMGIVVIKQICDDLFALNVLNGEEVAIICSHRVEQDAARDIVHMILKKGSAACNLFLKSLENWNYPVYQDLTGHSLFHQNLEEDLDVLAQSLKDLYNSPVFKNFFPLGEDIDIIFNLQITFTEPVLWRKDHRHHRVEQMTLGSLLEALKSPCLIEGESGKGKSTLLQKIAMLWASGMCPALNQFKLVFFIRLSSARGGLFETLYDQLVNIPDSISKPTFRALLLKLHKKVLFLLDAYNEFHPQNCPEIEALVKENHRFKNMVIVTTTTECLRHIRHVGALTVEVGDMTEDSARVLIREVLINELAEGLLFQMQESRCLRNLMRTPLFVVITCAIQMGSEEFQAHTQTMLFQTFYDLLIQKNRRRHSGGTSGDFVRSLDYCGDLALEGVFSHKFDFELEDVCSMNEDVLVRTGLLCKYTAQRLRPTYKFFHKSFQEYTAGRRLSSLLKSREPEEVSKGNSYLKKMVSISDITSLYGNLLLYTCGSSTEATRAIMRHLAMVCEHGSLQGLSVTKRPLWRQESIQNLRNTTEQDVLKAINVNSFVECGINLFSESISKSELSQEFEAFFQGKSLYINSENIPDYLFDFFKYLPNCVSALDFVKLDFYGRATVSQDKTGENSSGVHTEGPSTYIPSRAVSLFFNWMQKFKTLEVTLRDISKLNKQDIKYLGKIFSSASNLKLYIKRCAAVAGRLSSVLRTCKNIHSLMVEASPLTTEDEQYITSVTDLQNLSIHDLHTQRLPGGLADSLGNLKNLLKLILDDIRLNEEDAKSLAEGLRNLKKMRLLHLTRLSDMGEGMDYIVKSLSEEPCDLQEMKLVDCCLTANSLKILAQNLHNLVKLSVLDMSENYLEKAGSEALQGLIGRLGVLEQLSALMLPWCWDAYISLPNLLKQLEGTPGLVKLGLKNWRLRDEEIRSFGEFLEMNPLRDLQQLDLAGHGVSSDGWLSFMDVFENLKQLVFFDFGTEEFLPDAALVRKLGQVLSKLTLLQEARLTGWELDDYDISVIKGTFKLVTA

binding: binds
B1: pro-caspase-1 (protein, UniProt P43527 1-402)
chain: MADKVLRAKRKQFINSVSVGTINGLLDELLEKRVLNQEEMDTIKLANITVMEKARDLCDHVTKKGPRASQMFITYICNEDCYLAEILELQSGPSAETVFVTEDSKGGHPFSSETKEKLNKEGGAFPGPSGSLKFCPLEIAQKLWKENHSEIYPIMKTPTRTRLALIICNTDFQHLSRRVGADVDLREMKLLLQDLGYTVKVKENLTALEMTKELKEFAACPEHKTSDSTFLVFMSHGLQEGICGITYSNEVADILKVDTIFQMMNTLKCPSLKDKPKVIIIQACRGEKQGVVLLKDSVGNSEEGFLTDAIFEDDGIKKAHIEKDFIAFCSSTPDNVSWRHPVRGSLFIESLIKHMKEYAWSCDLEDIFRKVRFSFEQPDSRLQMPTTERVTLTKRFYLFPGH
